No constants are given. Whether binding was seen depends on the method and setting. Binding seen in cells or lysates may run through a third protein. Some entries that bind do so weakly or less than the wild type.
Target: V5-tagged human orthodenticle homeobox 2 (OTX2) (human) (UniProt P32243)
Test: co-IP; V5-OTX2 co-transfected into HeLa cells together with mRFP-tagged LINC components; co-immunoprecipitation and WB with indicated antibodies

The chains behind the UniProt entries cited, without tags or fusion partners.
UniProt P32243: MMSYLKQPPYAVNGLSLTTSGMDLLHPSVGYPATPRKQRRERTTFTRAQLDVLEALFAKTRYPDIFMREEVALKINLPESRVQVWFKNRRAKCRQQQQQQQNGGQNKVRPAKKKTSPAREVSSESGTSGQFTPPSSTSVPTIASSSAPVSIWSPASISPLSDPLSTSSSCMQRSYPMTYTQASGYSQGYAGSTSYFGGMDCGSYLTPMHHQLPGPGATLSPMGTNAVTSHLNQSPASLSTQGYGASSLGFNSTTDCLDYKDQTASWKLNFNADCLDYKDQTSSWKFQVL
UniProt O94901: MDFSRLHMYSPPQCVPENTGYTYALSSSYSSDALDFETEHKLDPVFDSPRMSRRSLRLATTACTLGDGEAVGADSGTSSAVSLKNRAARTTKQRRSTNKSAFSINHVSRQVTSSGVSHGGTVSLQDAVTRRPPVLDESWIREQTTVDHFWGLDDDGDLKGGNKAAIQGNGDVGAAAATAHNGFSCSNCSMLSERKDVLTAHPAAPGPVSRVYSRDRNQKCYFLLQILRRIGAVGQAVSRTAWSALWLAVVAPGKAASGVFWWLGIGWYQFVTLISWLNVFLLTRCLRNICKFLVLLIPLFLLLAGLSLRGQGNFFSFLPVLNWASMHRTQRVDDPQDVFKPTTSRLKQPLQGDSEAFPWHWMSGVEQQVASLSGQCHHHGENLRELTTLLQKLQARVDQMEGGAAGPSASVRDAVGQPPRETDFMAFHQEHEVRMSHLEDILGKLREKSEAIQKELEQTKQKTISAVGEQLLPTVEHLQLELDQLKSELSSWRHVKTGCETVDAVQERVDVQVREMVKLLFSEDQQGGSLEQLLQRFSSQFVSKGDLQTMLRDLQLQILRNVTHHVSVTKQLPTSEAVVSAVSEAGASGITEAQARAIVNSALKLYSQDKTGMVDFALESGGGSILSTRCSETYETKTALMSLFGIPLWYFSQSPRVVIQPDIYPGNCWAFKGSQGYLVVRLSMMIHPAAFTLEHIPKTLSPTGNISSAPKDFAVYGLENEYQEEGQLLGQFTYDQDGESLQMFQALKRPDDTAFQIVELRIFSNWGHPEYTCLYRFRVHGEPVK

binding: binds
Substance: mRFP-tagged SUN1 (Sad1 and UNC84 domain containing 1) (from UniProt O94901 1-785)

— article PMC9971051
